PubChem BioAssay AID1224830, NIAID, 2016

- Assay: 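Genes whose knock-down alters the TNF-alpha reporter response to LPS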 (primary screen)
- Cells: human THP-1 monocytic leukaemia cells, TNF dual-luciferase reporter clone, PMA-differentiated to macrophage-like cells
- Knock-down reagent: siRNA pool against human genes, 50 nM
- Duration: LPS for 4 h, given about 3 days after siRNA transfection
- Treatment: bacterial LPS (TLR4 ligand), 10 ng/ml
- Read-out: 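TNF firefly reporter luminescence divided by renilla, normalised to the plate median, then turned into a robust z-score for each replicate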
- Reading the numbers: TNF reporter robust z-score: higher = stronger TNF reporter response to LPS
- Active means: 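a well is active when its z-score exceeds 2.8 or falls below -1.5; control wells carry no call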
Here is one part, drawn at random, of about 18,000 reagents. About 2,900 of all reagents (16%) count as active. 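Calls are made per well; low scores hint the gene aids the LPS response, high scores that it dampens it.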 Repeated entries: four replicate wells of each siRNA pool.

Target gene,TNF reporter robust z-score,Outcome
ATP8B4,1.21,inactive
ATP8B4,1.37,inactive
ATP8B4,1.32,inactive
ATP8B4,1.05,inactive
NAGK,0.99,inactive
NAGK,1.1,inactive
NAGK,1.64,inactive
NAGK,2.26,inactive
RAB7A,-0.64,inactive
RAB7A,-0.38,inactive
RAB7A,-0.45,inactive
RAB7A,-0.08,inactive
MOB2,-0.53,inactive
MOB2,1.62,inactive
MOB2,1.07,inactive
MOB2,0.43,inactive
EXO1,0.74,inactive
EXO1,3.9,active
EXO1,1.13,inactive
EXO1,2.16,inactive
JMJD4,-0.81,inactive
JMJD4,-0.09,inactive
JMJD4,-0.89,inactive
JMJD4,0.74,inactive
YJEFN3,0.2,inactive
YJEFN3,0.4,inactive
YJEFN3,0.9,inactive
YJEFN3,-0.27,inactive
OR5H1,0.82,inactive
OR5H1,0.73,inactive
OR5H1,1.04,inactive
OR5H1,-0.57,inactive
TMEM207,2.46,inactive
TMEM207,1.62,inactive
TMEM207,1.17,inactive
TMEM207,-0.1,inactive
TSPAN8,0.25,inactive
TSPAN8,-0.16,inactive
TSPAN8,0.27,inactive
TSPAN8,0.44,inactive
SRRT,1.09,inactive
SRRT,-0.41,inactive
SRRT,-0.8,inactive
SRRT,-0.1,inactive

Laid out differently: entries from further up.
{"Target gene": "RAB7A", "TNF reporter robust z-score": -0.08, "Outcome": "inactive"}
{"Target gene": "MOB2", "TNF reporter robust z-score": -0.53, "Outcome": "inactive"}
{"Target gene": "MOB2", "TNF reporter robust z-score": 1.62, "Outcome": "inactive"}
{"Target gene": "MOB2", "TNF reporter robust z-score": 1.07, "Outcome": "inactive"}
{"Target gene": "MOB2", "TNF reporter robust z-score": 0.43, "Outcome": "inactive"}
{"Target gene": "EXO1", "TNF reporter robust z-score": 0.74, "Outcome": "inactive"}
{"Target gene": "EXO1", "TNF reporter robust z-score": 3.9, "Outcome": "active"}
{"Target gene": "EXO1", "TNF reporter robust z-score": 1.13, "Outcome": "inactive"}
{"Target gene": "EXO1", "TNF reporter robust z-score": 2.16, "Outcome": "inactive"}
{"Target gene": "JMJD4", "TNF reporter robust z-score": -0.81, "Outcome": "inactive"}
{"Target gene": "JMJD4", "TNF reporter robust z-score": -0.09, "Outcome": "inactive"}
{"Target gene": "JMJD4", "TNF reporter robust z-score": -0.89, "Outcome": "inactive"}
{"Target gene": "JMJD4", "TNF reporter robust z-score": 0.74, "Outcome": "inactive"}
{"Target gene": "YJEFN3", "TNF reporter robust z-score": 0.2, "Outcome": "inactive"}
{"Target gene": "YJEFN3", "TNF reporter robust z-score": 0.4, "Outcome": "inactive"}

Next records follow.
Target gene,TNF reporter robust z-score,Outcome
LOXL3,-0.83,inactive
LOXL3,0.53,inactive
LOXL3,-0.56,inactive
LOXL3,0.54,inactive
LRRTM3,-0.61,inactive
LRRTM3,0.71,inactive
LRRTM3,-0.36,inactive
LRRTM3,0.41,inactive
EPHA1,-0.1,inactive
EPHA1,-1.04,inactive
EPHA1,-0.05,inactive
EPHA1,0.86,inactive
TAS2R45,-0.52,inactive
TAS2R45,-0.37,inactive
TAS2R45,-0.89,inactive
POLR2D,-1.12,inactive
POLR2D,-0.64,inactive
POLR2D,-0.03,inactive
POLR2D,-0.85,inactive
CKLF,-1.46,inactive
CKLF,-0.91,inactive
CKLF,-1.59,active
CKLF,-1.6,active
TRMO,-1.63,active
TRMO,-0.03,inactive
TRMO,-0.57,inactive
TRMO,-0.13,inactive
PEX11G,-0.14,inactive
PEX11G,-0.54,inactive
PEX11G,-0.46,inactive
PEX11G,-0.1,inactive
TAPBPL,-1.21,inactive
TAPBPL,-0.87,inactive
TAPBPL,-0.9,inactive
TAPBPL,-1.13,inactive
APOB,-1.27,inactive
APOB,-0.95,inactive
APOB,-1.53,active
APOB,-1.14,inactive
MPC1,0.87,inactive
MPC1,3.47,active
MPC1,-0.36,inactive
MPC1,0.05,inactive
VN1R4,0.43,inactive
VN1R4,-0.59,inactive
VN1R4,0.33,inactive
VN1R4,0.14,inactive
PSMC1,-2.27,active
PSMC1,-2.16,active
PSMC1,-2.13,active
PSMC1,-2.02,active
SLC16A3,0.25,inactive
SLC16A3,1.53,inactive
SLC16A3,0.36,inactive
SLC16A3,0.34,inactive
VPS26A,-1.08,inactive
VPS26A,-0.51,inactive
VPS26A,-0.83,inactive
VPS26A,-0.47,inactive
VIP,1.85,inactive
VIP,2,inactive
VIP,0.45,inactive
VIP,1.16,inactive
ERCC8,0.8,inactive
ERCC8,1.67,inactive
ERCC8,1.98,inactive
ERCC8,3.16,active
